Laboratory results: patent US20190375791A1, “NEW D-CONFIGURED CATESLYTIN PEPTIDE” (priority 2016, published 2019)
Converted amounts (≈) assume the structure as drawn. At least one peptide structure holds a part that was inferred or is arguable (an end, a ring closure or a residue). Where a SMILES comes first, the peptide text is derived from it. [ ]: non-standard residue; d: D form.

Experiments:
Escherichia coli = Escherichia coli wild type, 24 hours incubation
Protocol: (§1) E. coli K-12 mutant E2146 was kindly provided by the Institut Pasteur of Paris. […] It is resistant to specific antibiotics, i.e. ampicillin, chloramphenicol, and kanamycin.
(§2) MIC was determined by broth microdilution. […] Experiments were performed with biological replicates.

Prevotella intermedia = settings: 24 hours incubation
Protocol: as §1, §2
To this aim, they determined the Fractional Inhibitory Concentration Index (FICI) of the combination between D-CTL and each antibiotic of reference.

Enterococcus faecalis = format: cell-based
Protocol: Enterococcus faecalis (CCM 2541) was obtained from the Czechoslovac Collection of Microorganisms (Czech Republic) Bacteria were cultured in Anaerobe Basal Broth (Oxoid, France) at 37° C. in anaerobic conditions. Candida albicans (ATCC© 10231™) was cultured in Sabouraud medium (BD, France) supplemented with tetracycline (10 μg/mL) and cefotaxime (10 μg/mL).
An overnight culture of each pathogen was diluted (OD600 nm=0.001) and incubated at 37° C. in 96-plates in the presence of different concentrations of antimicrobial agents. When testing Ca(OH)2, the pH of the solution was measured with by pH meter. (CyberScan pH 510©, Eutech, France). After 24 h incubation, the OD620 nm was evaluated with a spectrophotometer (Multikan EX, ThermoScientific, France). Each assay was done at least in triplicate. For each set of assay, the standard deviation was determined.

Candida albicans = format: cell-based; settings: 24 h, modified Gompertz model
Protocol: Candida albicans (ATCC© 10231™ distributed by LGC Standards, Molsheim, France) was cultured in Sabouraud medium (Sigma-Aldrich) supplemented with tetracycline (10 μg/mL) and cefotaxime (10 μg/mL) at 37° C. for 24 h. Candida albicans (OD600 nm=0,001) were plated in 96-well plates and treated either with different concentrations of the peptides of interest, and/or with different concentrations of voriconazole (VCZ) (Sigma-Aldrich). As a positive control, cells were treated with 10 μg/mL VCZ. After 24 h incubation, yeast growth was assessed by optical density OD600 nm using a spectrophotometer (Multiscan EX, Shanghai, China).
The MFC is defined as the lowest concentration of peptide able to inhibit 100% of yeasts, and determined using a modified Gompertz model as described in Lambert et Pearson (Lambert and Pearson 2000, J Appl Microbiol, 88(5): 784-790).
The efficiency of the combination D-CTL/VCZ was determined by the calculation of the Fractional inhibitory concentration (FIC) index according to the following formula: FICI=FICD-CTL+FICVCZ. According to EUCAST (European Committee on Antimicrobial Suscpetibility Testing), the effect of the combination is synergistic if FICI≤0,5, additive if 0,5<FICI≤1, indifferent if 1<FICI<2, antagonistic if FICI≥2^40-41. • Results D-CTL Inhibits the Groth of C. albicans

SMILES | MIC (Escherichia coli) [µg/mL] | MIC (Prevotella intermedia) [µg/mL] | MCB on E. faecalis (Enterococcus faecalis; broth dilution assays) [µg/mL] | minimal fungicidal concentration (MFC) (Candida albicans) | bacterial growth inhibition of E. faecalis (Enterococcus faecalis; peptides at 200 μg/mL)
CSCC[C@@H](NC(=O)[C@@H](CO)NC(=O)[C@H](N)CCCNC(=N)N)C(=O)N[C@H](CCCNC(=N)N)C(=O)N[C@H](CC(C)C)C(=O)N[C@H](CO)C(=O)N[C@H](Cc1ccccc1)C(=O)N[C@H](CCCNC(=N)N)C(=O)N[C@H](C)C(=O)N[C@H](CCCNC(=N)N)C(=O)NCC(=O)N[C@H](Cc1ccc(O)cc1)C(=O)NCC(=O)N[C@H](Cc1ccccc1)C(=O)N[C@H](CCCNC(=N)N)C(=O)O [D-CTL] (H-[dR][dS][dM][dR][dL][dS][dF][dR][dA][dR]G[dY]G[dF][dR]-OH; N-terminus and C-terminus assumed) | 8 (≈ 4.3 µM) | 10 | 156 | 5,5 μg/mL | 
CSCC[C@H](NC(=O)[C@H](CO)NC(=O)[C@@H](N)CCCNC(=N)N)C(=O)N[C@@H](CCCNC(=N)N)C(=O)N[C@@H](CC(C)C)C(=O)N[C@@H](CO)C(=O)N[C@@H](Cc1ccccc1)C(=O)N[C@@H](CCCNC(=N)N)C(=O)N[C@@H](C)C(=O)N[C@@H](CCCNC(=N)N)C(=O)NCC(=O)N[C@@H](Cc1ccc(O)cc1)C(=O)NCC(=O)N[C@@H](Cc1ccccc1)C(=O)N[C@@H](CCCNC(=N)N)C(=O)O [L-CTL] (H-RSMRLSFRARGYGFR-OH; N-terminus and C-terminus assumed) |  |  |  | 7,9 μg/mL | no antimicrobial activity
